# Laboratory results published in the supplement of paper PMC8728848.
# This is one part of the list.
# B1: SfaEH (Escherichia coli), Q1RDG5 (protein)
# chain: LLCRNNQTGQVFNSGDTSFRVNVSPVVQYDKSISVLDLSQLVSCQNEDSTGQNYDYLKILKGSGFSPALDTKTYGRLDFTSRPTGYARQLPLQFDLQVTEAFYQYGVWKPFPAKLYLYPAPGVFGKVINNGDLLATLYVNKFSTKGQEAGERNFTWRFYATNDVYIQTGTCRVSSNNVKVDLPSYPGGPVTVPLTVRCDQTQSVSYTLSGPVTGSGNTVFANTAASGSGGVGIQLSDNVGPVPAGQPRSLGQVGSSPVSLGLKASYALTGQASPTPGAVQSVINVTFSYN
# Experiments:
# Test in all cases: glycan array binding signal (z-score within array); higher = stronger binding
# Conditions in all cases: glycan notation: IUPAC condensed, linker removed
# Fuc(a1-2)Gal = biological target: Fuc(a1-2)Gal
# How it was run: (§1)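 From the Consortium for Functional Glycomics database, 3228 arrays were curated, keeping only those whose protein sequence was available. Binding is given as a within-array Z-score averaged across arrays sharing a protein sequence and across linkers. Negative Z-scores can be read as non-binding.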
# Fuc(a1-2)Gal(b1-3)GalNAc = biological target: Fuc(a1-2)Gal(b1-3)GalNAc
# How it was run: as §1
# [1] = biological target: Fuc(a1-2)Gal(b1-3)GalNAc(a1-3)[Fuc(a1-2)]Gal(b1-4)Glc
# How it was run: as §1
# [2] = biological target: Fuc(a1-2)Gal(b1-3)GalNAc(a1-3)[Fuc(a1-2)]Gal(b1-4)GlcNAc
# How it was run: as §1
# [3] = biological target: Fuc(a1-2)Gal(b1-3)GalNAc(b1-3)Gal
# How it was run: as §1
# [4] = biological target: Fuc(a1-2)Gal(b1-3)GalNAc(b1-3)Gal(a1-4)Gal(b1-4)Glc
# How it was run: as §1
# [5] = biological target: Fuc(a1-2)Gal(b1-3)GalNAc(b1-4)[Neu5Ac(a2-3)]Gal(b1-4)Glc
# How it was run: as §1
# Fuc(a1-2)Gal(b1-3)GlcNAc = biological target: Fuc(a1-2)Gal(b1-3)GlcNAc
# How it was run: as §1
# [6] = biological target: Fuc(a1-2)Gal(b1-3)GlcNAc(b1-2)Man(a1-3)[Fuc(a1-2)Gal(b1-3)GlcNAc(b1-2)Man(a1-6)]Man(b1-4)GlcNAc(b1-4)GlcNAc
# How it was run: as §1
# [7] = biological target: Fuc(a1-2)Gal(b1-3)GlcNAc(b1-2)Man(a1-3)[Fuc(a1-2)Gal(b1-3)GlcNAc(b1-2)Man(a1-6)]Man(b1-4)GlcNAc(b1-4)[Fuc(a1-6)]GlcNAc
# How it was run: as §1
# [8] = biological target: Fuc(a1-2)Gal(b1-3)GlcNAc(b1-3)Gal(b1-4)Glc
# How it was run: as §1
# [9] = biological target: Fuc(a1-2)Gal(b1-3)GlcNAc(b1-3)GalNAc
# How it was run: as §1
# [10] = biological target: Fuc(a1-2)Gal(b1-3)GlcNAc(b1-3)[Fuc(a1-2)Gal(b1-3)GlcNAc(b1-6)]GalNAc
# How it was run: as §1
# [11] = biological target: Fuc(a1-2)Gal(b1-3)GlcNAc(b1-3)[Gal(b1-4)GlcNAc(b1-6)]Gal(b1-4)Glc
# How it was run: as §1
# [12] = biological target: Fuc(a1-2)Gal(b1-3)GlcNAc(b1-3)[Neu5Ac(a2-6)Gal(b1-4)GlcNAc(b1-6)]Gal(b1-4)Glc
# How it was run: as §1
# [13] = biological target: Fuc(a1-2)Gal(b1-3)GlcNAc6S
# How it was run: as §1
# [14] = biological target: Fuc(a1-2)Gal(b1-3)[Fuc(a1-4)]GlcNAc
# How it was run: as §1
# [15] = biological target: Fuc(a1-2)Gal(b1-3)[Fuc(a1-4)]GlcNAc(b1-2)Man(a1-3)[Fuc(a1-2)Gal(b1-3)[Fuc(a1-4)]GlcNAc(b1-2)Man(a1-3)]Man(b1-4)GlcNAc(b1-4)GlcNAc
# How it was run: as §1
# [16] = biological target: Fuc(a1-2)Gal(b1-3)[Fuc(a1-4)]GlcNAc(b1-2)Man(a1-3)[Fuc(a1-2)Gal(b1-3)[Fuc(a1-4)]GlcNAc(b1-2)Man(a1-6)]Man(b1-4)GlcNAc(b1-4)[Fuc(a1-6)]GlcNAc(b1-4)[Fuc(a1-6)]GlcNAc
# How it was run: as §1
# [17] = biological target: Fuc(a1-2)Gal(b1-3)[Fuc(a1-4)]GlcNAc(b1-3)[Fuc(a1-3)[Gal(b1-4)]GlcNAc(b1-6)]Gal(b1-4)Glc
# How it was run: as §1
# [18] = biological target: Fuc(a1-2)Gal(b1-3)[Fuc(a1-4)]GlcNAc(b1-3)[Gal(b1-4)GlcNAc(b1-6)]Gal(b1-4)Glc
# How it was run: as §1
# [19] = biological target: Fuc(a1-2)Gal(b1-4)Fuc(a1-3)]GlcNAc(b1-2)Man(a1-3)[Fuc(a1-2)Gal(b1-4)[Fuc(a1-3)]GlcNAc(b1-2)Man(a1-6)]Man(b1-4)GlcNAc(b1-4)GlcNAc
# How it was run: as §1
# Fuc(a1-2)Gal(b1-4)Glc = biological target: Fuc(a1-2)Gal(b1-4)Glc
# How it was run: as §1
# Fuc(a1-2)Gal(b1-4)Glc6S = biological target: Fuc(a1-2)Gal(b1-4)Glc6S
# How it was run: as §1
# Fuc(a1-2)Gal(b1-4)GlcNAc = biological target: Fuc(a1-2)Gal(b1-4)GlcNAc
# How it was run: as §1
# [20] = biological target: Fuc(a1-2)Gal(b1-4)GlcNAc(b1-2)Man
# How it was run: as §1
# [21] = biological target: Fuc(a1-2)Gal(b1-4)GlcNAc(b1-2)Man(a1-3)[Fuc(a1-2)Gal(b1-4)GlcNAc(b1-2)Man(a1-6)]Man(b1-4)GlcNAc(b1-4)GlcNAc
# How it was run: as §1
# [22] = biological target: Fuc(a1-2)Gal(b1-4)GlcNAc(b1-2)Man(a1-3)[Fuc(a1-2)Gal(b1-4)GlcNAc(b1-2)Man(a1-6)]Man(b1-4)GlcNAc(b1-4)[Fuc(a1-6)]GlcNAc
# How it was run: as §1
# [23] = biological target: Fuc(a1-2)Gal(b1-4)GlcNAc(b1-2)[Fuc(a1-2)Gal(b1-4)GlcNAc(b1-4)]Man(a1-3)[Fuc(a1-2)Gal(b1-4)GlcNAc(b1-2)Man(a1-6)]Man(b1-4)GlcNAc(b1-4)GlcNAc
# How it was run: as §1
# [24] = biological target: Fuc(a1-2)Gal(b1-4)GlcNAc(b1-3)Gal(b1-4)GlcNAc
# How it was run: as §1
binder,measurement,setting,value
B1,glycan array binding signal (z-score),Fuc(a1-2)Gal,-0.532
same,glycan array binding signal (z-score),Fuc(a1-2)Gal(b1-3)GalNAc,-0.226
same,glycan array binding signal (z-score),[1],-0.098
same,glycan array binding signal (z-score),[2],-0.117
same,glycan array binding signal (z-score),[3],0.525
same,glycan array binding signal (z-score),[4],-0.22
same,glycan array binding signal (z-score),[5],-0.413
same,glycan array binding signal (z-score),Fuc(a1-2)Gal(b1-3)GlcNAc,-0.678
same,glycan array binding signal (z-score),[6],0.788
same,glycan array binding signal (z-score),[7],0.691
same,glycan array binding signal (z-score),[8],0.357
same,glycan array binding signal (z-score),[9],-1.23
same,glycan array binding signal (z-score),[10],0.301
same,glycan array binding signal (z-score),[11],-0.405
same,glycan array binding signal (z-score),[12],-0.93
same,glycan array binding signal (z-score),[13],-0.911
same,glycan array binding signal (z-score),[14],-0.638
same,glycan array binding signal (z-score),[15],0.666
same,glycan array binding signal (z-score),[16],1.21
same,glycan array binding signal (z-score),[17],0.167
same,glycan array binding signal (z-score),[18],-0.768
same,glycan array binding signal (z-score),[19],0.084
same,glycan array binding signal (z-score),Fuc(a1-2)Gal(b1-4)Glc,0.14
same,glycan array binding signal (z-score),Fuc(a1-2)Gal(b1-4)Glc6S,0.852
same,glycan array binding signal (z-score),Fuc(a1-2)Gal(b1-4)GlcNAc,-0.144
same,glycan array binding signal (z-score),[20],-0.16
same,glycan array binding signal (z-score),[21],-0.305
same,glycan array binding signal (z-score),[22],-0.238
same,glycan array binding signal (z-score),[23],1.43
same,glycan array binding signal (z-score),[24],-0.452

# Reprinted from the entries so far (7 entries):
binder,measurement,setting,value
B1,glycan array binding signal (z-score),[9],-1.23
same,glycan array binding signal (z-score),[10],0.301
same,glycan array binding signal (z-score),[11],-0.405
same,glycan array binding signal (z-score),[12],-0.93
same,glycan array binding signal (z-score),[13],-0.911
same,glycan array binding signal (z-score),[14],-0.638
same,glycan array binding signal (z-score),[15],0.666
